Values of other authors in patent US20240216406A1, “METHODS AND COMPOSITIONS FOR SUPPORTING HUMAN HEALTH DURING SPACE TRAVEL” (Intrinsic Medicine, Inc., priority 2021, published 2024).
For at least one compound, name, drawing or mass did not settle the structure.

Test system: NF-κB
Conditions: modeled weightlessness

In the case of `CC/C=C\C/C=C\C/C=C\C/C=C\C/C=C\CCCC(=O)O` [eicosapentaenoic acid], the NF-κB activation is given as “can decrease NF-κB activation”.
